Reference: PMC5640428
Results are given in words; binding and its absence hold for the method and conditions named. In cells and extracts the contact can be indirect. Here binding means that the protein was enriched with, or labelled near, the bait; the list need not be complete.

Target: T1, native KCC2 (K+-Cl- cotransporter KCC2) (mouse (endogenous in brain)) (UniProt Q91V14)
T1 sequence: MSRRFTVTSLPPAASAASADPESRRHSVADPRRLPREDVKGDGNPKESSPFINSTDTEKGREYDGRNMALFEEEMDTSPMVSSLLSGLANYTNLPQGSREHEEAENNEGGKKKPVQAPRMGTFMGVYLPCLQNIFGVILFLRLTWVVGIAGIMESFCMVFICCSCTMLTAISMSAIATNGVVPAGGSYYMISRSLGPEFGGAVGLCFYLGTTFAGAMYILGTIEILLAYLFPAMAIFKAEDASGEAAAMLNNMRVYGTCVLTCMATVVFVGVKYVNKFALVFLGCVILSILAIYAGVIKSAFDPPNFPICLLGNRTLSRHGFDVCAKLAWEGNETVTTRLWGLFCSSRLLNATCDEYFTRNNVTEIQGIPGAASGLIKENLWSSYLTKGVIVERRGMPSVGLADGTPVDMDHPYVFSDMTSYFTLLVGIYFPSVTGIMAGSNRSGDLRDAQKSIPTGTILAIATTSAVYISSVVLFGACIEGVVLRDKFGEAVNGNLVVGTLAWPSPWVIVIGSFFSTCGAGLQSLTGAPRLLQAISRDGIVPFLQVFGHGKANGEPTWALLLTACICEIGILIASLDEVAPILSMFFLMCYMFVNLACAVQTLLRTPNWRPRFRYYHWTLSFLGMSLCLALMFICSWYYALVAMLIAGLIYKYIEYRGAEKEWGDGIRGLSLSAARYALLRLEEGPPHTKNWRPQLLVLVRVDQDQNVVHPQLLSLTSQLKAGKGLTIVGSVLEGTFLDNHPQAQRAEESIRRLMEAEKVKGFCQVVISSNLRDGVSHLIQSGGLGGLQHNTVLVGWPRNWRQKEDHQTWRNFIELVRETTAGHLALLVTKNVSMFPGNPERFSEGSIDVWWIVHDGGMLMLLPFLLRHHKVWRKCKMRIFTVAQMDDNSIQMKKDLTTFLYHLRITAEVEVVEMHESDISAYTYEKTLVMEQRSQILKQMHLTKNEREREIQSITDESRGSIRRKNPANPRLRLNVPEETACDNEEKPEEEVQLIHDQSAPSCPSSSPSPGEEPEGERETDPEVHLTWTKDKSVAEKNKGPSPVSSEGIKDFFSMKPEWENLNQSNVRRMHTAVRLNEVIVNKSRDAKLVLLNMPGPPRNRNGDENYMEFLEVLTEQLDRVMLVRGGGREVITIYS
Assay: affinity purification with mass spectrometry; anti-KCC2 antibodies (C-terminal, N-terminal KCC2b, pS940) cross-linked with DMP to GammaBind IgG beads; C12E9-solubilised whole-brain membrane fractions of P5 and P50 mice; 4 hr, 4°C; parallel IgG/IgY controls

| Binder | binding |
| --- | --- |
| C1QC (protein, UniProt Q02105 30-246) SAGCYGIPGMPGMPGAPGKDGHDGLQGPKGEPGIPAVPGTRGPKGQKGEPGMPGHRGKNGPRGTSGLPGDPGPRGPPGEPGVEGRYKQKHQSVFTVTRQTTQYPEANALVRFNSVVTNPQGHYNPSTGKFTCEVPGLYYFVYYTSHTANLCVHLNLNLARVASFCDHMFNSKQVSSGGVLLRLQRGDEVWLSVNDYNGMVGIEGSNSVFSGFLLFPD | binds |
| DCLK1 (protein, UniProt Q9JLM8 1-756) MSFGRDMELEHFDERDKAQRYSRGSRVNGLPSPTHSAHCSFYRTRTLQTLSSEKKAKKVRFYRNGDRYFKGIVYAISPDRFRSFEALLADLTRTLSDNVNLPQGVRTIYTIDGLKKISSLDQLVEGESYVCGSIEPFKKLEYTKNVNPNWSVNVKTTSASRAVSSLATAKGGPSEVRENKDFIRPKLVTIIRSGVKPRKAVRILLNKKTAHSFEQVLTDITDAIKLDSGVVKRLYTLDGKQVMCLQDFFGDDDIFIACGPEKFRYQDDFLLDESECRVVKSTSYTKIASASRRGTTKSPGPSRRSKSPASTSSVNGTPGSQLSTPRSGKSPSPSPTSPGSLRKQRISQHGGSSTSLSSTKVCSSMDENDGPGEGDELGRRHSLQRGWRREESEEGFQIPATITERYKVGRTIGDGNFAVVKECIERSTAREYALKIIKKSKCRGKEHMIQNEVSILRRVKHPNIVLLIEEMDVPTELYLVMELVKGGDLFDAITSTSKYTERDASGMLYNLASAIKYLHSLNIVHRDIKPENLLVYEHQDGSKSLKLGDFGLATIVDGPLYTVCGTPTYVAPEIIAETGYGLKVDIWAAGVITYILLCGFPPFRGSGDDQEVLFDQILMGQVDFPSPYWDNVSDSAKELINMMLLVNVDQRFSAVQVLEHPWVNDDGLPENEHQLSVAGKIKKHFNTGPKPSSTAAGVSVIATTALDKERQVFRRRRNQDVRSRYKAQPAPPELNSESEDYSPSSSETVRSPNSPF | binds |
| SLC25A3 (protein, UniProt Q8VEM8 46-357) AVEEYSCEFGSMKYYALCGFGGVLSCGLTHTAVVPLDLVKCRMQVDPQKYKGIFNGFSITLKEDGVRGLAKGWAPTLIGYSMQGLCKFGFYEVFKALYSNILGEENTYLWRTSLYLASSASAEFFADIALAPMEAAKVRIQTQPGYANTLREAVPKMYKEEGLNAFYKGVAPLWMRQIPYTMMKFACFERTVEALYKFVVPKPRSECTKAEQLVVTFVAGYIAGVFCAIVSHPADSVVSVLNKEKGSTASQVLQRLGFRGVWKGLFARIIMIGTLTALQWFIYDSVKVYFRLPRPPPPEMPESLKKKLGLTE | binds |
| ADGRL2 (protein, UniProt Q8JZZ7 26-1487) FSRAALPFGLVRRELSCEGYSIDLRCPGSDVIMIESANYGRTDDKICDADPFQMENTDCYLPDAFKIMTQRCNNRTQCIVVTGSDVFPDPCPGTYKYLEVQYECVPYSKMLVFVCPGTLKAIVDSPCIYEAEQKSGAWCKDPLQAADKIYFMPWTPYRTDTLIEYASLEDFQNSRQTTTYKLPNRVDGTGFVVYDGAVFFNKERTRNIVKFDLRTRIKSGEAIINYANYHDTSPYRWGGKTDIDLAVDENGLWVIYATEQNNGMIVISQLNPYTLRFEATWETAYDKRAASNAFMICGVLYVVRSVYQDNESEAGKNTIDYIYNTRLSRGEYVDVPFPNQYQYIAAVDYNPRDNQLYVWNNNFILRYSLEFGPPDPAQVPTTAVTITSSAELFKTTISTTSSASQRGPVSSTAAGPQDGSRGTKPPPAVSTTKIPPVTNIFPLPERFCEALDWKGIKWPQTQRGMMVERPCPKGTRGTASYLCMASTGTWNPKGPDLSNCTSHWVNQLAQKIRSGENAASLANELAKHTKGHVFAGDVSSSVRLMEQLVDILDAQLQELKPSEKDSAGRSYNKLQKREKTCRAYLKAIVDTVDNLLRAEALESWKHMNSSEQAHTATMLLDTLEEGAFVLADNLLEPTRVSMPTENIVLEVAVLSTEGQVQDFKFPLGLKGLGSSIQLSANTVKQNSRNGLAKLVFIIYRSLGQFLSTENATIKLGADLMGRNSTIAVNSPVISVSINKESSRVYLTDPVLFTLPHIDPDNYFNANCSFWNYSERTMMGYWSTQGCKLVDTNKTRTTCACSHLTNFAILMAHREIAYKDGVHHLLLTVITWVGIVVSLVCLAICIFTFCFFRGLQSDRNTIHKNLCINLFIAEFIFLIGIDKTKYTIACPVFAGLLHFFFLAAFSWMCLEGVQLYLMLVEVFESEYSRKKYYYVAGYLFPATVVGVSAAIDYKSYGTVQACWLHVDNYFIWSFIGPVTFIILLNIIFLVITLCKMVKHSNTLKPDSSRLENINNYRVCDGYYNTDLPGYEDNKPFIKSWVLGAFALLCLLGLTWSFGLLFVNEETVVMAYLFTAFNAFQGLFIFIFHCALQKKVRKEYGKCFRHWYCCGGLPTESPHSSVKASTTRTSARYSSGTQSRIRRMWNDTVRKQSESSFISGDINSTSTLNQGMTGNYLLTNPLLRPHGTNNPYNTLLAETVVCNAPSAPAFNSPGHSLNNARDTSAMDTLPLNGNFNNSYSLRKADYHDGVQVVDCGLSLNDTAFEKMIISELVHNNLRGGNKTHNLELKLPVKPVIGGSSSEDDAIVADASSLMHGDNPGLEFRHKELEAPLIPQRTHSLLYQPQKKVKPEATDSYVSQLTAEADDHLQSPNRDSLYTSMPNLRDSPYPESSPDMAEDLSPSRRSENEDIYYKSMPNLGAGRHLHMCYQISRGNSDGYIIPINKEGCIPEGDVREGQMQLVTSL | binds |
| RAB3IP (protein, UniProt Q68EF0 1-428) MANDPLEGFHEVNLASPTSPDLLGVCDPGTQEQTTSPSVIYRPHPSTLCAAPLQANALDLSDLPTQPVYSSPRHFNCAEVSNISAHAPDPASSVPSAVASGLTKLTSRKDSCNAEREFLQGATITEASAGNDDIFGLSTDSLSRLRSPSVLEVREKGYERLKEELAKAQREAHKMVREANVKQATAEKQLKEAQGKIDVLQAEVAALKTLVLSSSPTSPTQEPLAAAKTPFKRGHTRNKSTSSAMGGSHQDLSVIQPIVKDCKEADLSLYNEFRSWKDEPTMDRTCPFLDKIYQEDIFPCLTFAKSELASAVLEAVENNTLSIEPVGLQPIRFVKASAVECGGPKKCALTGQSKPCRHRIRLGDSSCCYYISPFCRYRITSVCNFFTYIRYIQQGLVKQQDVDQMFWEVMQLRKEMSLAKLGYFKEEL | binds |
| UQCR11 (protein, UniProt Q9CPX8 1-56) MLSRFLGPRYRELARNWIPTAGMWGTVGAVGLVWATDWRLILDWVPYINGKFKKDD | binds |
| ATP5O (protein, UniProt Q9DB20 24-213) FAKLVRPPVQVYGIEGRYATALYSAASKEKKLDQVEKELLRVGQLLKDPKVSLAVLNPYIKRTVKVKSLNDITKREKFSPLTANLMNLLAENGRLGNTQGIISAFSTIMSVHRGEVPCTVTTASPLDDAVLSELKTVLKSFLSPNQILKLEIKTDPSIMGGMIVRIGEKYVDMSAKSKIQKLSKAMREML | binds |
| ACAT1 (protein, UniProt Q8QZT1 31-424) ASKPTLNEVVIVSAIRTPIGSFLGSLASQPATKLGTAAIQGAIEKAGIPKEEVKEVYMGNVIQGGEGQAPTRQATLGAGLPISTPCTTVNKVCASGMKAIMMASQSLMCGHQDVMVAGGMESMSNVPYVMSRGATPYGGVKLEDLIVKDGLTDVYNKIHMGNCAENTAKKMNISRQEQDTYALSSYTRSKEAWDAGKFASEITPITISVKGKPDVVVKEDEEYKRVDFSKVPKLKTVFQKENGTITAANASTLNDGAAALVLMTAEAAQRLNVKPLARIAAFADAAVDPIDFPLAPAYAVPKVLKYAGLKKEDIAMWEVNEAFSVVVLANIKMLEIDPQKVNIHGGAVSLGHPIGMSGARIVVHMAHALKPGEFGLASICNGGGGASALLIEKL | binds |
| C1QA (protein, UniProt P98086 23-245) EDVCRAPNGKDGAPGNPGRPGRPGLKGERGEPGAAGIRTGIRGFKGDPGESGPPGKPGNVGLPGPSGPLGDSGPQGLKGVKGNPGNIRDQPRPAFSAIRQNPMTLGNVVIFDKVLTNQESPYQNHTGRFICAVPGFYYFNFQVISKWDLCLFIKSSSGGQPRDSLSFSNTNNKGLFQVLAGGTVLQLRRGDEVWIEKDPAKGRIYQGTEADSIFSGFLIFPSA | binds |
| NDUFA10 (protein, UniProt Q99LC3 36-355) LRYGLLAAILGDKTTKKLHEYSRVITVDGNICSGKNKLAKEIAQQLGMKHYPEAGIQYSSTTTGDGRPLDIEFSGSCSLEKFYDDPKSNDGNSYRLQSWLYASRLLQYADALEHLLSTGQGVVLERSIYSDFVFLEAMYNQGYIRKQCVDHYNEIKRLTLPEYLPPHAVIYIDVPVPEVQSRIQKKGDPHEMKVTSAYLQDIENAYKKTFLPKMSEMCEVLVYDSWEAEDPTKVVEDIEYLKYNKGPWLKQDDWTFHYLRMLVQDKTEVLNYTTIPVYLPEITIGAHQGSRIYNSFRELPGRKYAPGYNAEVGDKWIWLK | binds |
| RAP2B (protein, UniProt P61226 1-183) MREYKVVVLGSGGVGKSALTVQFVTGSFIEKYDPTIEDFYRKEIEVDSSPSVLEILDTAGTEQFASMRDLYIKNGQGFILVYSLVNQQSFQDIKPMRDQIIRVKRYERVPMILVGNKVDLEGEREVSYGEGKALAEEWSCPFMETSAKNKASVDELFAEIVRQMNYAAQPNGDEGCCSACVIL | binds |
